# Publication PMC3677937
# Amino acid sequences for entries named in this document (tags omitted).
# UniProt Q13258: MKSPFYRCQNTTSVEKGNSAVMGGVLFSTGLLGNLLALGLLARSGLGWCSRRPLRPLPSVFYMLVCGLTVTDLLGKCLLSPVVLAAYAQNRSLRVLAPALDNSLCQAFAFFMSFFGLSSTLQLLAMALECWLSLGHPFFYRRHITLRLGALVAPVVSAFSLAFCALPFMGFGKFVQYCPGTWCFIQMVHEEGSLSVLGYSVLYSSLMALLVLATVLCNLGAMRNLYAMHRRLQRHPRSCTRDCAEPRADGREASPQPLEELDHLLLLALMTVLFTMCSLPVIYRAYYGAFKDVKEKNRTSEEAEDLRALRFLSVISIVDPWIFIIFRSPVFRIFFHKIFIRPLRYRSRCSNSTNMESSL
# Results are given in words; binding and its absence hold for the method and conditions named. Binding seen in cells or lysates may run through a third protein. Some entries that bind do so weakly or less than the wild type. Where a sequence is shown, tags or fusion partners need not be part of it.
# Biological target: Flag-tagged prostanoid DP1 receptor (D-type prostanoid receptor) (UniProt Q13258)
# Test: co-IP; HEK293 cells transiently co-expressing Flag-DP1 and ANKRD13C-myc, treated with vehicle (ethanol) or 1 µM MK-0524 for 24 h; Flag-DP1 immunoprecipitated from lysate (150 mM NaCl, 50 mM Tris pH 8.0, 0.5% deoxycholate, 0.1% SDS, 1% IGEPAL) with protein G-agarose; blots with anti-Flag and …
binder,measurement,value
"ANKRD13C-myc (protein, UniProt Q8N6S4 1-541) MTGEKIRSLRRDHKPSKEEGDLLEPGDEEAAAALGGTFTRSRIGKGGKACHKIFSNHHHRLQLKAAPASSNPPGAPALPLHNSSVTANSQSPALLAGTNPVAVVADGGSCPAHYPVHECVFKGDVRRLSSLIRTHNIGQKDNHGNTPLHLAVMLGNKECAHLLLAHNAPVKVKNAQGWSPLAEAISYGDRQMITALLRKLKQQSRESVEEKRPRLLKALKELGDFYLELHWDFQSWVPLLSRILPSDACKIYKQGINIRLDTTLIDFTDMKCQRGDLSFIFNGDAAPSESFVVLDNEQKVYQRIHHEESEMETEEEVDILMSSDIYSATLSTKSISFTRAQTGWLFREDKTERVGNFLADFYLVNGLVLESRKRREHLSEEDILRNKAIMESLSKGGNIMEQNFEPIRRQSLTPPPQNTITWEEYISAENGKAPHLGRELVCKESKKTFKATIAMSQEFPLGIELLLNVLEVVAPFKHFNKLREFVQMKLPPGFPVKLDIPVFPTITATVTFQEFRYDEFDGSIFTIPDDYKEDPSRFPDL",binding,binds
